# Experimental data: PubChem BioAssay AID1259332 (Broad Institute, 2017)
# Inconclusive means that the source gave no clear call. Such entries were picked first, then a sample of the others. Calls of active or inactive are those of the source. How the calls were made is not given here.
# Assay: CD40 pathway inhibition in B cells – B cell lineage, dose response (AID 1259332);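 further: cells stimulated with CD40 ligand tCD40L; 0% = neutral control wells and -100% = positive control wells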
# Conditions: B cell line, CD40 signaling inhibition reporter; at 10 µM (top of the series) unless noted
row,SMILES,"activity change, negative = inhibition"
1,NS(=O)(=O)c1cc2c(cc1C(F)(F)F)NC(Cc1ccccc1)NS2(=O)=O (stereo unspecified),inactive: 5.72%
2,O=c1cc(-c2ccccc2)oc2cc(O)cc(O)c12,inconclusive: 152% [at 1.1 µM]
3,COc1ccccc1C(=O)Nc1ccc2c(c1)C(=O)N(C)[C@H]1CC[C@H](CC(=O)Nc3cccc(C(C)C)c3)O[C@@H]1CO2,inactive: 12.5% [at 3.5 µM]
4,CSC1SCC2C(=O)N(C)C(C(C)C)C(=O)OCC(NC(=O)c3cnc4ccccc4n3)C(=O)NC(C)C(=O)N(C)C1C(=O)N(C)C(C(C)C)C(=O)OCC(NC(=O)c1cnc3ccccc3n1)C(=O)NC(C)C(=O)N2C (stereo unspecified),inconclusive: -51.9%
5,Cc1nc(-c2ccc(OCC(C)C)c(C#N)c2)sc1C(=O)O,inconclusive: 69.5% [at 3.5 µM]
6,COc1cccc2c1C(=O)c1c(O)c3c(c(O)c1C2=O)C[C@@](O)(C(C)=O)C[C@@H]3O[C@H]1C[C@H](N)[C@H](O)[C@H](C)O1,inconclusive: -84.6%
